Data taken from the supplement of paper PMC10689618.
Structures can show the parent of a compound that is named as a salt. The list shows a part of the results. Many values rest on one well or one pass, so single values are uncertain.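 Labelled rat cortical synaptosomes were engulfed by primary human fetal astrocytes. Engulfment equaled a red/green ratio, corrected for calcein live-cell signal and normalized to the plate median. Compounds were toxic when calcein dropped over 30%, and reduced phagocytosis when below 70% of the median above 5 µM.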

Experiments:
Human fetal astrocytes [1] = test: loss of total cells relative to no-compound high-control median (toxicity); higher = more toxic (fewer cells); conditions: 24 h
Human fetal astrocytes [2] = test: synaptosome phagocytosis (pHrodo/calcein intensity ratio) relative to plate median of data wells; higher = more phagocytosis; conditions: 24 h

SMILES | loss of total cells (Human fetal astrocytes [1]; 1.39 µM) | loss of total cells (Human fetal astrocytes [1]; 2.78 µM) | loss of total cells (Human fetal astrocytes [1]; 5.56 µM) | loss of total cells (Human fetal astrocytes [1]; 11.11 µM) | loss of total cells (Human fetal astrocytes [1]; 22.22 µM) | synaptosome phagocytosis (Human fetal astrocytes [2]; 1.39 µM) | synaptosome phagocytosis (Human fetal astrocytes [2]; 2.78 µM) | synaptosome phagocytosis (Human fetal astrocytes [2]; 5.56 µM) | synaptosome phagocytosis (Human fetal astrocytes [2]; 11.11 µM) | synaptosome phagocytosis (Human fetal astrocytes [2]; 22.22 µM)
O=C(O)Cc1cc(I)c(Oc2cc(I)c(O)c(I)c2)c(I)c1 | 13.4% | 2.5% | 15.9% | 25.5% | 6.8% | 114% | 123% | 102% | 150% | 120%
CC1CC(OC(=O)C(O)c2ccccc2)CC(C)(C)C1 (stereo not given) | 19.9% | 15.5% | 26.1% | 19.7% | 14.4% | 133% | 97.3% | 76.6% | 132% | 111%
O=C(CCc1ccc(O)cc1)c1c(O)cc(O)cc1O[C@@H]1OC(CO)[C@@H](O)[C@@H](O)C1O (stereo not given in full) | 20.6% | 18.4% | 16.7% | 1.3% | 22% | 89% | 125% | 103% | 96.2% | 87.2%
O=C(O)c1cc(O)c(O)c(O)c1 | 17.7% | -1.1% | 21% | 32.2% | 24.2% | 128% | 107% | 126% | 106% | 106%
COc1ccc2oc(-c3ccccc3)c(OC)c(=O)c2c1 | -32% | -7.6% | -18.3% | 3.4% | 8.9% | 60.8% | 77.2% | 71.8% | 71% | 94.6%
O=c1[nH]cnc2nc[nH]c12 | -2.5% | -6.1% | 2.2% | 6.1% | 11.1% | 115% | 93.4% | 106% | 109% | 120%
CC=CC1=C(C(=O)O)N2C(=O)[C@@H](NC(=O)[C@H](N)c3ccc(O)cc3)[C@H]2SC1 | -16.6% | -15.5% | -10.5% | -15.6% | -13.6% | 83.5% | 102% | 75.3% | 91.1% | 82.1%
COC1=CC(=O)C[C@@H](C)[C@]12Oc1c(Cl)c(OC)cc(OC)c1C2=O | -2.5% | 8.2% | 11.1% | 12.5% | 17.6% | 98.6% | 113% | 116% | 94.6% | 127%
CC1=CC(=O)C2=C(C)CC[C@@H]3[C@H](OC(=O)[C@H]3C)[C@@H]12 | -8.2% | -13.4% | 0.7% | 16.9% | 19.3% | 93.3% | 106% | 109% | 93.5% | 121%
CC(=O)CC(=O)CCC(=O)O | 10.5% | 12.6% | 2.9% | -14.6% | 15.9% | 122% | 138% | 108% | 136% | 113%
CC(C)=CCc1c(O)cc2oc(C)cc(=O)c2c1O | -10.5% | 0% | -1.5% | 40% | 10.7% | 100% | 71.7% | 117% | 154% | 87.1%
COc1cc(NC(C)CCCN)c2ncccc2c1 (stereo not given) | -11.6% | -8.5% | -6.3% | 2.6% | 61.1% | 79.4% | 66.9% | 39.4% | 32.7% | 14.4%
N=C(N)NC(=N)NCCc1ccccc1 | -33.2% | -19.8% | 2.7% | -14.8% | 11.3% | 107% | 104% | 87% | 63% | 97.1%
COc1cc(-c2ccc(/N=N/c3ccc4c(S(=O)(=O)O)cc(S(=O)(=O)O)c(N)c4c3O)c(OC)c2)ccc1/N=N/c1ccc2c(S(=O)(=O)O)cc(S(=O)(=O)O)c(N)c2c1O | 14.1% | 5.4% | 37% | 54.8% | 65.9% | 108% | 90.2% | 52.4% | 128% | 110%
COc1ccc2c(c1)c(CC(=O)OCC(=O)O)c(C)n2C(=O)c1ccc(Cl)cc1 | -8.3% | 7.6% | 13.8% | -22.2% | 6.1% | 84.8% | 96.2% | 133% | 110% | 107%
CC(=O)OCC(=O)[C@@]1(O)[C@H](OC(C)=O)C[C@H]2[C@@H]3CCC4=CC(=O)C=C[C@]4(C)[C@@]3(F)[C@@H](O)C[C@@]21C | -5.6% | -34.2% | -23% | -32% | 17.9% | 103% | 134% | 116% | 110% | 131%
COC(=O)[C@@H]1OC(=O)C2OC23[C@@]1(C)CCC1[C@]2(C)C(C[C@@H](O)[C@]13C)C(C)(C)[C@H](OC(C)=O)C[C@@H]2OC(C)=O (stereo not given in full) | -11.2% | 2.7% | 27.5% | 1.9% | 4.1% | 93.4% | 112% | 133% | 114% | 129%
CC(=O)c1ccc(S(=O)(=O)NC(=O)NC2CCCCC2)cc1 [Acetohexamide] | 20.2% | -22.2% | 14.3% | -1.6% | 2.2% | 149% | 89.4% | 137% | 94.2% | 120%
C/C1=C2/[N-]C([C@H](CC(N)=O)[C@@]2(C)CCC(=O)NCC(C)OP(=O)([O-])OC2C(O)[C@@H](n3cnc4cc(C)c(C)cc43)O[C@@H]2CO)[C@]2(C)N=C(/C(C)=C3N=C(/C=C4N=C1[C@@H](CCC(N)=O)C\4(C)C)[C@@H](CCC(N)=O)[C@]\3(C)CC(N)=O)[C@@H](CCC(N)=O)[C@]2(C)CC(N)=O.[CH2-]C1O[C@H](n2cnc3c(N)ncnc32)[C@@H](O)[C@H]1O.[Co+3] (stereo not given in full) | 10.4% | -6.4% | -2.8% | -6.6% | -10.6% | 100% | 98.9% | 69.2% | 71% | 92.4%
COc1cc(C(=O)NCc2ccc(OCCN(C)C)cc2)cc(OC)c1OC | 0% | 4.6% | 4.5% | -31.3% | 2.8% | 72% | 109% | 115% | 127% | 121%
C[C@H]1[C@H](C)CC[C@]2(C(=O)O)CC[C@]3(C)C(=CC[C@@H]4[C@@]5(C)C[C@@H](O)[C@H](O)[C@@](C)(CO)[C@@H]5CC[C@]43C)[C@H]12 | -18% | -14.8% | 2.9% | 9.5% | 26.7% | 111% | 104% | 126% | 94.6% | 131%

Only loss of total cells (Human fetal astrocytes [1]; 2.78 µM) and synaptosome phagocytosis (Human fetal astrocytes [2]; 22.22 µM) (two entries from above):

| SMILES | loss of total cells (Human fetal astrocytes [1]; 2.78 µM) | synaptosome phagocytosis (Human fetal astrocytes [2]; 22.22 µM) |
| --- | --- | --- |
| O=c1[nH]cnc2nc[nH]c12 | -6.1% | 120% |
| COC(=O)[C@@H]1OC(=O)C2OC23[C@@]1(C)CCC1[C@]2(C)C(C[C@@H](O)[C@]13C)C(C)(C)[C@H](OC(C)=O)C[C@@H]2OC(C)=O (stereo not given in full) | 2.7% | 129% |

Additional records

SMILES | loss of total cells (Human fetal astrocytes [1]; 1.39 µM) | loss of total cells (Human fetal astrocytes [1]; 2.78 µM) | loss of total cells (Human fetal astrocytes [1]; 5.56 µM) | loss of total cells (Human fetal astrocytes [1]; 11.11 µM) | loss of total cells (Human fetal astrocytes [1]; 22.22 µM) | synaptosome phagocytosis (Human fetal astrocytes [2]; 1.39 µM) | synaptosome phagocytosis (Human fetal astrocytes [2]; 2.78 µM) | synaptosome phagocytosis (Human fetal astrocytes [2]; 5.56 µM) | synaptosome phagocytosis (Human fetal astrocytes [2]; 11.11 µM) | synaptosome phagocytosis (Human fetal astrocytes [2]; 22.22 µM)
Cc1cc(-n2c(=O)[nH]c(=O)n(C)c2=O)ccc1Oc1ccc(SC(F)(F)F)cc1 | -35.5% | -10.3% | -9.9% | 22.6% | 3.4% | 79.8% | 103% | 105% | 104% | 99.8%
OC(c1cc(C(F)(F)F)nc2c(C(F)(F)F)cccc12)C1CCCCN1 (stereo not given) | -28.2% | -34.9% | 13% | 16.7% | 50.8% | 100% | 92.1% | 81.2% | 59.9% | 31.8%
CC1(C)O[C@@H]2C[C@H]3[C@@H]4C[C@H](F)C5=CC(=O)C=C[C@]5(C)[C@H]4[C@@H](O)C[C@]3(C)[C@]2(C(=O)CO)O1 | -2.5% | -5.2% | 14.1% | -4.7% | 10.8% | 118% | 88.4% | 89.9% | 84% | 140%
C=CC(C1=CC(=O)C(OC)=CC1=O)c1ccccc1 (stereo not given) | 4.7% | 1.3% | -20.6% | 41.3% | 2.6% | 102% | 100% | 89% | 123% | 90.3%
CCn1cc(C(=O)O)c(=O)c2cc(F)c(N3CCNCC3)cc21 | 10.8% | -25.9% | 3.9% | -19.5% | -6.8% | 98.2% | 101% | 108% | 106% | 103%
Cn1c(=O)c2c(ncn2CC(O)CO)n(C)c1=O (stereo not given) | -22.3% | -7.1% | -14.6% | 7.2% | 33.7% | 122% | 131% | 105% | 96.2% | 110%
CC(C)(Oc1ccc(Cl)cc1)C(=O)O | 3.2% | 1.1% | 18.1% | 5.4% | 30.3% | 107% | 91.6% | 118% | 100% | 120%
COC(=O)C[C@H]1C(C)(C)C2(O)OC34CC2C(=O)[C@]1(C)C3CC[C@]1(C)C4=CC(=O)O[C@H]1c1ccoc1 (stereo partly drawn) [8beta-HYDROXYCARAPIN, 3,8-HEMIACETAL] | -4.7% | 1.3% | 36.6% | -10.3% | 3.3% | 109% | 78% | 144% | 83.6% | 148%
O=C(O[C@H]1CN2CCC1CC2)N1CCc2ccccc2[C@@H]1c1ccccc1 | -46% | -34.9% | -0.6% | 17.4% | 10.9% | 79.8% | 106% | 95.7% | 85.4% | 107%
CC(=O)Nc1c(I)cc(I)c(C(=O)O)c1I | -47.6% | 29.4% | 1.2% | 46.9% | 12.8% | 25.2% | 109% | 88.2% | 148% | 81%
NNC(=O)c1ccncc1 | 6.8% | -33.6% | -9.8% | 2.6% | -20.4% | 110% | 127% | 112% | 92.6% | 98.9%
CCOC(=O)[C@H](CCc1ccccc1)N[C@@H](C)C(=O)N1CCC[C@H]1C(=O)O | -33.2% | -15.5% | -2.7% | -20.3% | 11.9% | 100% | 94.1% | 86.4% | 101% | 82.3%
COC(=O)[C@H]1[C@H]2C[C@H]3c4[nH]c5ccccc5c4CCN3C[C@H]2CC[C@@H]1O [Rauwolscine hydrochloride] | -16.4% | 0.4% | -3.7% | 12.8% | 4.4% | 148% | 91.9% | 124% | 109% | 81.5%
COc1c(CC(=O)c2cc3c(cc2O)OC(C)(C)C(O)C3)ccc2c1C=CC(C)(C)O2 (stereo not given) | -8.3% | 16.6% | -19.8% | 16.1% | -12.2% | 108% | 108% | 104% | 99.2% | 86.8%
Cc1ccc(C)c(OCCCC(C)(C)C(=O)O)c1 | 2.7% | -24.1% | -9.8% | -9.5% | -15.5% | 102% | 108% | 125% | 110% | 98.2%
NS(=O)(=O)c1cc(C(=O)O)c(NCc2ccco2)cc1Cl | -6.2% | 1.7% | -3.5% | -3.7% | 38.6% | 91.7% | 102% | 103% | 98.1% | 113%
CC(C)NCC(O)COc1ccc(COCCOC(C)C)cc1 (stereo not given) | -29% | 25.4% | 6.2% | 42.3% | 6.5% | 133% | 172% | 74.9% | 135% | 94.2%
C=CC1=C(C)C2=CC3=NC(=C(CC(=O)O)C4=NC(=C(C)C4=C(O)O)C=c4[nH]c(c(C)c4CC)=CC1=N2)C(CCC(=O)O)C3C (stereo not given) | -30.6% | 38.9% | 16.8% | 52.8% | 65.7% | 85.3% | 147% | 99.4% | 78% | 56.5%
CC(=O)[C@H]1CC[C@H]2[C@@H]3CC=C4C[C@@H](O)CC[C@]4(C)[C@H]3CC[C@]12C | 15.5% | 6.9% | 8% | 5.4% | 21.2% | 136% | 111% | 106% | 118% | 79.2%
O=c1cccc2ccc(O)c(O)c2c1O | 0.4% | 30.7% | 26.1% | 32.2% | 57.6% | 77.7% | 104% | 87.4% | 82.2% | 78.1%
COc1ccc(-c2coc3c(OC)c(OC)cc(O)c3c2=O)cc1 | -11.2% | 2% | -19.8% | 15.5% | -22.6% | 110% | 89.2% | 103% | 96.8% | 122%
